Measured values taken from patent US7358056B1, “Methods for modulating signal transduction mediated by TGF-β and related proteins” (Signal Pharmaceuticals, priority 1999, dated 2008).
Not every detail of the peptide structures is certain; ends, links or a residue may be inferred. Where a SMILES comes first, the peptide text is derived from it. The star is where a group is joined. Biotin = O=C1N[C@H]2[C@H](CS[C@H]2CCCCC(=O)*)N1; Ahx = NCCCCCC(=O)O

Biological target: T1, WWP1.2 (second WW domain of WWP1) (Homo sapiens, UniProt Q9H0M0)
T1 construct: Each domain was individually expressed as a GST fusion protein; made in house
Assay: TRF binding assay, peptide titration with nonlinear fit and Scatchard analysis
Details: GST-WW domain coated at 30 μg/mL overnight

SMILES: CSCC[C@H](NC(=O)[C@@H]1CCCN1C(=O)[C@H](Cc1ccc(O)cc1)NC(=O)[C@H](CCCNC(=N)N)NC(=O)[C@H](CO)NC(=O)[C@H](Cc1ccc(O)cc1)NC(=O)[C@@H]1CCCN1C(=O)[C@@H]1CCCN1C(=O)[C@@H]1CCCN1C(=O)[C@@H]1CCCN1C(=O)[C@H](CO)NC(=O)[C@H](CCC(=O)O)NC(=O)[C@H](CC(C)C)NC(=O)[C@H](CCC(=O)O)NC(=O)CCCCCNC(=O)CCCC[C@@H]1SC[C@@H]2NC(=O)N[C@@H]21)C(N)=O [Smad 7, ELESPPPPYSRYPM (SEQ ID NO:20)] ({Biotin-Ahx}-ELESPPPPYSRYPM-NH2; C-terminus assumed)
- Interaction with WWP1.2 (TRF, peptide titration): very potent interaction
